The text below walks through data of publication PMC9302817, “VEGF receptor heterodimers and homodimers are differentially expressed in neuronal and endothelial cell types” (PLoS ONE, 2022).

By UniProt entry, the sequences of proteins in these tests, tags left out. Residues count along the entry.
UniProt P17948, residues 27-1338: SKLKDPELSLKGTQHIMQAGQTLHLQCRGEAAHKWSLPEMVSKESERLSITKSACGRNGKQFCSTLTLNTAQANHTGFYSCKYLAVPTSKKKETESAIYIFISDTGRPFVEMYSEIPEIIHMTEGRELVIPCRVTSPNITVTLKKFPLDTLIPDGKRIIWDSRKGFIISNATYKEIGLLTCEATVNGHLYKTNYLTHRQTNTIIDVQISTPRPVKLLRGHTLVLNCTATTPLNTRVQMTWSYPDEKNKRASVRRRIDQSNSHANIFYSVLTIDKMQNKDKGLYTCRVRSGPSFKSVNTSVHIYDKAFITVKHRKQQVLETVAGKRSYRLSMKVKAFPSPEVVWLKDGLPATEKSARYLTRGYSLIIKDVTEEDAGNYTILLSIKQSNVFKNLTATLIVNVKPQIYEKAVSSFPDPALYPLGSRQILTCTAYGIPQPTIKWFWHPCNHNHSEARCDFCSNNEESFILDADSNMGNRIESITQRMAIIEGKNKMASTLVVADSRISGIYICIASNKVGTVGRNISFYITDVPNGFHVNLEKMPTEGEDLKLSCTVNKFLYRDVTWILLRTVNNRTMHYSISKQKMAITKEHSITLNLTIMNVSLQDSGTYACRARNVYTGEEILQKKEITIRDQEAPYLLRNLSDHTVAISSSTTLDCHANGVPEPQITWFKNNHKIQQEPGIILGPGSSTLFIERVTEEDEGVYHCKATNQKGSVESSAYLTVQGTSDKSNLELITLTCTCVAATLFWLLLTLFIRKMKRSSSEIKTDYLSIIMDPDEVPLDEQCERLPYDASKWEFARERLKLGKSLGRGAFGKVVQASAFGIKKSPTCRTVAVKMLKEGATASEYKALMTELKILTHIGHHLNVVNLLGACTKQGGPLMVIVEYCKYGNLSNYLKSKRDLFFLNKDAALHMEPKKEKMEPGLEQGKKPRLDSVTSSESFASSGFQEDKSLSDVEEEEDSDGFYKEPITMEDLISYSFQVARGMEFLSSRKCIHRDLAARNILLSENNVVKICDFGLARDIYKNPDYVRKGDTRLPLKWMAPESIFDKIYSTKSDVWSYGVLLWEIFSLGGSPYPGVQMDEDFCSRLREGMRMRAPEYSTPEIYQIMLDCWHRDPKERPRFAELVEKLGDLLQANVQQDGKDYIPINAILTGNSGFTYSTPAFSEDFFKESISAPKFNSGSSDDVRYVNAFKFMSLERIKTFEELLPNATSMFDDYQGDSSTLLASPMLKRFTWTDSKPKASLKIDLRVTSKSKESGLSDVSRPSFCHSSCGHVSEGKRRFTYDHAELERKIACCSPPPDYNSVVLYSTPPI
UniProt O08775, residues 20-1343: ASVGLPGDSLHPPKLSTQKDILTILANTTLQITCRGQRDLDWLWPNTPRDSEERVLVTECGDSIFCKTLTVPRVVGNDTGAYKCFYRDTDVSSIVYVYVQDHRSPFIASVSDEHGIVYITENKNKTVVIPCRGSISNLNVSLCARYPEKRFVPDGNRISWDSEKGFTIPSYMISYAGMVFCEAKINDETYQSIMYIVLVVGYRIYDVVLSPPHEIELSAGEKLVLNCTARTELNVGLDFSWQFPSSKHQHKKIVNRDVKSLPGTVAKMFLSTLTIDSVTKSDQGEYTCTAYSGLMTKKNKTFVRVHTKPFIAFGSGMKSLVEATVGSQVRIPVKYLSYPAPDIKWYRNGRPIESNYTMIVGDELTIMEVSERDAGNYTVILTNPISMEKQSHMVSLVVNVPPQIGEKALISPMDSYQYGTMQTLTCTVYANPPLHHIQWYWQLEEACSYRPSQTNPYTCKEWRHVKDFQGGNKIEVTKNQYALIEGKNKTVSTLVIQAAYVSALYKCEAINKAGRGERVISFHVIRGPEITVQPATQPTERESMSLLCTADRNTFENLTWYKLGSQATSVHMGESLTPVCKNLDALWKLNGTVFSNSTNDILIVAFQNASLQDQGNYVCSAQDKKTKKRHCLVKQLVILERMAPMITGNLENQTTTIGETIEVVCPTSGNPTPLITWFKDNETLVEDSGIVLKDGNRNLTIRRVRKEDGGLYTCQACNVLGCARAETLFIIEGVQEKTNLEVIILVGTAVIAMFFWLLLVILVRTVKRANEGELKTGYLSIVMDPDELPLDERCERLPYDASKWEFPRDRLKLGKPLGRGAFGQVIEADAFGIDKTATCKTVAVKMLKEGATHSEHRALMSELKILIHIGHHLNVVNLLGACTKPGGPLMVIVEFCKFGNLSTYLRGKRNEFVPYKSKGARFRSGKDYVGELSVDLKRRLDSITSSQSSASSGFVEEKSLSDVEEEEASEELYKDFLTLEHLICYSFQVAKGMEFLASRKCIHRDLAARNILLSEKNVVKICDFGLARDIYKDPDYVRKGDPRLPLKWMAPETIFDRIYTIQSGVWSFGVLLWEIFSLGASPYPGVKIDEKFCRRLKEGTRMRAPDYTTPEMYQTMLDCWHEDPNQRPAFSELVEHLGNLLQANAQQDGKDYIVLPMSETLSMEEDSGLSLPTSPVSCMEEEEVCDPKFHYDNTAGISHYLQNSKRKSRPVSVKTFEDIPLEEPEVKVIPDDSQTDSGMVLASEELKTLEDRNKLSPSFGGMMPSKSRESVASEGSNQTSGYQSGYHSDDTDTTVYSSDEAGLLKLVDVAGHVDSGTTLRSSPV
UniProt P35968, residues 20-1356: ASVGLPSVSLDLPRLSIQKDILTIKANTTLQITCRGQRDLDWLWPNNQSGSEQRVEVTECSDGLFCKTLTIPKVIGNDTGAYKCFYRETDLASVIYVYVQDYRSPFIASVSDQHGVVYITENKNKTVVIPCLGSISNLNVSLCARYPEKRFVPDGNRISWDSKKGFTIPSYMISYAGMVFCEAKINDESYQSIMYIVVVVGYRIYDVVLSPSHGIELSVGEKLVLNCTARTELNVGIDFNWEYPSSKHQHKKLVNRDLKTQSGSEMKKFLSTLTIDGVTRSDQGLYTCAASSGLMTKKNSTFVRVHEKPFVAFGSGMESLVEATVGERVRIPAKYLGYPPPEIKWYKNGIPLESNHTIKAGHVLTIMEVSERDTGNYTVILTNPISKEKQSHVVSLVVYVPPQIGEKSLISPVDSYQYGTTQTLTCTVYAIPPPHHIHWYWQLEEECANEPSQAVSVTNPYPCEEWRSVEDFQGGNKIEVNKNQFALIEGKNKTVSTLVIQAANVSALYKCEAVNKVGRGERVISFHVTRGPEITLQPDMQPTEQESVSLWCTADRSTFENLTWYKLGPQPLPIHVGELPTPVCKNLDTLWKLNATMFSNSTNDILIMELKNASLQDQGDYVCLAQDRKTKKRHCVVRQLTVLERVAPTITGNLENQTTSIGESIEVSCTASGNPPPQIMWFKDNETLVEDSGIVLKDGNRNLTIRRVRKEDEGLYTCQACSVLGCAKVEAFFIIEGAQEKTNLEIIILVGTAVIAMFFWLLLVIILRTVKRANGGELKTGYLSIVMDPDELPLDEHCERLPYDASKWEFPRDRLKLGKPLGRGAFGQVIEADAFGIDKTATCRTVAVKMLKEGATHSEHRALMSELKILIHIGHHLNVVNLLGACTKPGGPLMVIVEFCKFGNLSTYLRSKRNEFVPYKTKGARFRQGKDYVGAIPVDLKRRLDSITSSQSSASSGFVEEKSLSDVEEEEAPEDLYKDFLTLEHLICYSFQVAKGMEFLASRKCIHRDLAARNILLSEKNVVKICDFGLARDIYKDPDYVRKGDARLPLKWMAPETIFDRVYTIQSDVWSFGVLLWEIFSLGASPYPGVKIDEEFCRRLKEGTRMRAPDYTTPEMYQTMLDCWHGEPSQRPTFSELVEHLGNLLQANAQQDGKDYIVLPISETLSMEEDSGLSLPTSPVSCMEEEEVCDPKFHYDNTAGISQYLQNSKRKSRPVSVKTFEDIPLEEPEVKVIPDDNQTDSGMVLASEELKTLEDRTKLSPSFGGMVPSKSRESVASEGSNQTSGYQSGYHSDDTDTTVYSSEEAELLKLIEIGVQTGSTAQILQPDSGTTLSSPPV

Assay [1] deals with T1, VEGFR1 (rat, endogenous in PC12 neuronal cells) (rat (endogenous in PC12)) (UniProt P53767).
T1 sequence: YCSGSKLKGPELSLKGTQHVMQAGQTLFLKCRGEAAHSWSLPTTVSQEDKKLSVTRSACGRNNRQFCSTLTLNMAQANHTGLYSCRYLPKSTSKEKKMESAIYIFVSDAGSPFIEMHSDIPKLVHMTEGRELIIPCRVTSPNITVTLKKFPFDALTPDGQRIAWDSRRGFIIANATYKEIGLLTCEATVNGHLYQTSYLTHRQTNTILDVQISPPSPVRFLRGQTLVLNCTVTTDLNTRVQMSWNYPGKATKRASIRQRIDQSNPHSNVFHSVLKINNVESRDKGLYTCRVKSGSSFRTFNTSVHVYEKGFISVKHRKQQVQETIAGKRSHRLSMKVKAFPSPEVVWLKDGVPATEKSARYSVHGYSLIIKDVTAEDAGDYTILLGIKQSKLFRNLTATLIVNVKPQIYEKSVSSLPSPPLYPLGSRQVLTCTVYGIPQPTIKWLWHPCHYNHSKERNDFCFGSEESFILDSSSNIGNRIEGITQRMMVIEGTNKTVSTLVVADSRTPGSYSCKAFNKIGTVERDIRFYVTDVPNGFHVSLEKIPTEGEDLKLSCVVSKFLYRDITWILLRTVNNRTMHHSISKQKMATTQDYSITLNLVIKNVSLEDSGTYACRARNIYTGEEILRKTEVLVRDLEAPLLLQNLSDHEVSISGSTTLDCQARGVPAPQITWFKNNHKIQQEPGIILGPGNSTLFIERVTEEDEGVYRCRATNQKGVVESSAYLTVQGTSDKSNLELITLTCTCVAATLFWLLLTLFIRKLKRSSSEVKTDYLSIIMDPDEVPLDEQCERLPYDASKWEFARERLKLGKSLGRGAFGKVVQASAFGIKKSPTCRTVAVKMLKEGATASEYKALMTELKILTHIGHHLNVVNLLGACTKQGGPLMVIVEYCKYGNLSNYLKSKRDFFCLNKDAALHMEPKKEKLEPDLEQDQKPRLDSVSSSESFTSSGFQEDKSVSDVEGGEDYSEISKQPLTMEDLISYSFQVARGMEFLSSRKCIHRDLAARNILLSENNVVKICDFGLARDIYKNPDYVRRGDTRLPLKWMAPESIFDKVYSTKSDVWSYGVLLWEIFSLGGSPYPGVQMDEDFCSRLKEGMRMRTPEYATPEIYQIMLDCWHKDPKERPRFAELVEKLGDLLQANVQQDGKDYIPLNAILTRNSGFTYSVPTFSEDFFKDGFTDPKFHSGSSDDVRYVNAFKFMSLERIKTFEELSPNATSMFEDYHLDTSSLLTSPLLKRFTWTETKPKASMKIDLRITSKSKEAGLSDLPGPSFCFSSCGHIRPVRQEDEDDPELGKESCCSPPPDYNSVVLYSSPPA
Briefly: co-IP; cell lysates (PC12, MAEC, MVEC, HUVEC) in modified RIPA buffer, immunoprecipitated with rat anti-VEGFR1 on Protein G Dynabeads, blot probed with rabbit anti-VEGFR2; treated with vehicle, VEGF-A or VEGF-B; bead-only controls.

Assay [2] has as its target VEGFR1 (human, endogenous in HUVEC) (human (endogenous in HUVEC)) (UniProt P17948). The description is as above.
Assay [3] concerns the target T2, VEGFR1 (mouse, endogenous in MAEC, MVEC, trigeminal ganglion neurons and mouse tissues) (mouse (endogenous in MAEC, MVEC, trigeminal ganglion neurons and mouse tissues)) (UniProt P35969).
T2 sequence: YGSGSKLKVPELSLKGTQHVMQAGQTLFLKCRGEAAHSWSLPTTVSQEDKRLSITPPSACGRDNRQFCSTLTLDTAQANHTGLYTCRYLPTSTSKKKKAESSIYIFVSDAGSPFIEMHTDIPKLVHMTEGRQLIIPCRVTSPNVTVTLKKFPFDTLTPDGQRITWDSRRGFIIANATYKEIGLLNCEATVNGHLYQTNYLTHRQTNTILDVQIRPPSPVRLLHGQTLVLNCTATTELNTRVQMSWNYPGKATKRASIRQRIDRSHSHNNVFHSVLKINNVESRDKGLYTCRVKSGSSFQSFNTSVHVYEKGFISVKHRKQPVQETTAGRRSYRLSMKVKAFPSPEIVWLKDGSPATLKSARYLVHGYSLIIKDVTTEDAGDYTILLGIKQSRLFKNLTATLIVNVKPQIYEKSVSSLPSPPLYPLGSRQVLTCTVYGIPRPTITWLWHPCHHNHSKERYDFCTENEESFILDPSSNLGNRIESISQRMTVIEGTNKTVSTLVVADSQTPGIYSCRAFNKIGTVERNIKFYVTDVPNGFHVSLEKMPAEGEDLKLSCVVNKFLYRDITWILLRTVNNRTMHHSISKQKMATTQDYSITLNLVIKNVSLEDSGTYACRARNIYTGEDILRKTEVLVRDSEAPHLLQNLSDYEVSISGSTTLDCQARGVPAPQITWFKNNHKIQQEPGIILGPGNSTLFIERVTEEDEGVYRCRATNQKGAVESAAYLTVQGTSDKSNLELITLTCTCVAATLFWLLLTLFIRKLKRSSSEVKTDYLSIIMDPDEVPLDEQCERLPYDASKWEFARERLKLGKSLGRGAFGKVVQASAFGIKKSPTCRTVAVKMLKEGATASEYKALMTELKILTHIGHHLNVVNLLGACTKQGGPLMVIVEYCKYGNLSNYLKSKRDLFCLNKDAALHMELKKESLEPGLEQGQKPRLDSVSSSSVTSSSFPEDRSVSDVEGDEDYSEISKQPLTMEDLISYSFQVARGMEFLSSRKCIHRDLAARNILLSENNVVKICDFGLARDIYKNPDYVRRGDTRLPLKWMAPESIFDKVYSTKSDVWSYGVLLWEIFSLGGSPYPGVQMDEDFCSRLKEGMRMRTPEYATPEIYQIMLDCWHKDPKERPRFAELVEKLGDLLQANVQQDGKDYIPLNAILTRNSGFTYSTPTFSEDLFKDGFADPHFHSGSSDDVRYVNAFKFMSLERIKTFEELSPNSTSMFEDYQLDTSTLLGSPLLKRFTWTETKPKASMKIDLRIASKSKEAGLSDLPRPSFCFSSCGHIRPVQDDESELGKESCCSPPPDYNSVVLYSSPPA
Briefly: co-IP; mouse tissue lysates (thoracic aorta, portal vein, dorsal root ganglia, trigeminal ganglia, cornea) immunoprecipitated with rat anti-VEGFR1 on Protein G Dynabeads, blot probed with anti-VEGFR2.

Assay [4] deals with T2, VEGFR1 (mouse, endogenous in MAEC, MVEC, trigeminal ganglion neurons and mouse tissues) (mouse (endogenous in MAEC, MVEC, trigeminal ganglion neurons and mouse tissues)). Briefly: co-IP; cell lysates (PC12, MAEC, MVEC, HUVEC) in modified RIPA buffer, immunoprecipitated with rat anti-VEGFR1 on Protein G Dynabeads, blot probed with rabbit anti-VEGFR2; treated with vehicle, VEGF-A or VEGF-B; bead-only controls.

Assay [5] deals with T1, VEGFR1 (rat, endogenous in PC12 neuronal cells) (rat (endogenous in PC12)). Briefly: proximity ligation; Duolink PLA on fixed PC12 neuronal cells; anti-VEGFR1 and anti-VEGFR2 with PLUS and MINUS probes (the same antibody with both probes for homodimers); signal only within 40 nm.

These are yes or no findings as the source states them, for the method shown. In cells and extracts the contact can be indirect. Some binding calls cover weakened binding; strength is not graded here.

As to “VEGFR2 (rat, endogenous in PC12 neuronal cells) (from UniProt O08775 20-1343) (receptor)”, the binding result in assay [1] is “binds”.

With “VEGFR2 (human, endogenous in HUVEC) (from UniProt P35968 20-1356) (receptor)”, the binding result in assay [2] is listed as “binds”.

B1: VEGFR2 (mouse, endogenous in MAEC, MVEC, trigeminal ganglion neurons and mouse tissues) (receptor, UniProt P35918 20-1345, looked up)
chain: ASVGLPGDFLHPPKLSTQKDILTILANTTLQITCRGQRDLDWLWPNAQRDSEERVLVTECGGGDSIFCKTLTIPRVVGNDTGAYKCSYRDVDIASTVYVYVRDYRSPFIASVSDQHGIVYITENKNKTVVIPCRGSISNLNVSLCARYPEKRFVPDGNRISWDSEIGFTLPSYMISYAGMVFCEAKINDETYQSIMYIVVVVGYRIYDVILSPPHEIELSAGEKLVLNCTARTELNVGLDFTWHSPPSKSHHKKIVNRDVKPFPGTVAKMFLSTLTIESVTKSDQGEYTCVASSGRMIKRNRTFVRVHTKPFIAFGSGMKSLVEATVGSQVRIPVKYLSYPAPDIKWYRNGRPIESNYTMIVGDELTIMEVTERDAGNYTVILTNPISMEKQSHMVSLVVNVPPQIGEKALISPMDSYQYGTMQTLTCTVYANPPLHHIQWYWQLEEACSYRPGQTSPYACKEWRHVEDFQGGNKIEVTKNQYALIEGKNKTVSTLVIQAANVSALYKCEAINKAGRGERVISFHVIRGPEITVQPAAQPTEQESVSLLCTADRNTFENLTWYKLGSQATSVHMGESLTPVCKNLDALWKLNGTMFSNSTNDILIVAFQNASLQDQGDYVCSAQDKKTKKRHCLVKQLIILERMAPMITGNLENQTTTIGETIEVTCPASGNPTPHITWFKDNETLVEDSGIVLRDGNRNLTIRRVRKEDGGLYTCQACNVLGCARAETLFIIEGAQEKTNLEVIILVGTAVIAMFFWLLLVIVLRTVKRANEGELKTGYLSIVMDPDELPLDERCERLPYDASKWEFPRDRLKLGKPLGRGAFGQVIEADAFGIDKTATCKTVAVKMLKEGATHSEHRALMSELKILIHIGHHLNVVNLLGACTKPGGPLMVIVEFCKFGNLSTYLRGKRNEFVPYKSKGARFRQGKDYVGELSVDLKRRLDSITSSQSSASSGFVEEKSLSDVEEEEASEELYKDFLTLEHLICYSFQVAKGMEFLASRKCIHRDLAARNILLSEKNVVKICDFGLARDIYKDPDYVRKGDARLPLKWMAPETIFDRVYTIQSDVWSFGVLLWEIFSLGASPYPGVKIDEEFCRRLKEGTRMRAPDYTTPEMYQTMLDCWHEDPNQRPSFSELVEHLGNLLQANAQQDGKDYIVLPMSETLSMEEDSGLSLPTSPVSCMEEEEVCDPKFHYDNTAGISHYLQNSKRKSRPVSVKTFEDIPLEEPEVKVIPDDSQTDSGMVLASEELKTLEDRNKLSPSFGGMMPSKSRESVASEGSNQTSGYQSGYHSDDTDTTVYSSDEAGLLKMVDAAVHADSGTTLRSPPV
notes: Endogenous protein; also called KDR; flk-1; source: endogenous, MAEC and MVEC lysates; endogenous, mouse tissue lysates (thoracic aorta, portal vein, dorsal root ganglia, trigeminal ganglia, cornea); endogenous, fixed MAEC, MVEC and trigeminal ganglion neuronal cells
On to B1, for which the binding result in assay [3] and in assay [4] was “binds” in each case.

B2: VEGFR1 (rat, endogenous in PC12 neuronal cells) (receptor, UniProt P53767 23-1336)
chain: YCSGSKLKGPELSLKGTQHVMQAGQTLFLKCRGEAAHSWSLPTTVSQEDKKLSVTRSACGRNNRQFCSTLTLNMAQANHTGLYSCRYLPKSTSKEKKMESAIYIFVSDAGSPFIEMHSDIPKLVHMTEGRELIIPCRVTSPNITVTLKKFPFDALTPDGQRIAWDSRRGFIIANATYKEIGLLTCEATVNGHLYQTSYLTHRQTNTILDVQISPPSPVRFLRGQTLVLNCTVTTDLNTRVQMSWNYPGKATKRASIRQRIDQSNPHSNVFHSVLKINNVESRDKGLYTCRVKSGSSFRTFNTSVHVYEKGFISVKHRKQQVQETIAGKRSHRLSMKVKAFPSPEVVWLKDGVPATEKSARYSVHGYSLIIKDVTAEDAGDYTILLGIKQSKLFRNLTATLIVNVKPQIYEKSVSSLPSPPLYPLGSRQVLTCTVYGIPQPTIKWLWHPCHYNHSKERNDFCFGSEESFILDSSSNIGNRIEGITQRMMVIEGTNKTVSTLVVADSRTPGSYSCKAFNKIGTVERDIRFYVTDVPNGFHVSLEKIPTEGEDLKLSCVVSKFLYRDITWILLRTVNNRTMHHSISKQKMATTQDYSITLNLVIKNVSLEDSGTYACRARNIYTGEEILRKTEVLVRDLEAPLLLQNLSDHEVSISGSTTLDCQARGVPAPQITWFKNNHKIQQEPGIILGPGNSTLFIERVTEEDEGVYRCRATNQKGVVESSAYLTVQGTSDKSNLELITLTCTCVAATLFWLLLTLFIRKLKRSSSEVKTDYLSIIMDPDEVPLDEQCERLPYDASKWEFARERLKLGKSLGRGAFGKVVQASAFGIKKSPTCRTVAVKMLKEGATASEYKALMTELKILTHIGHHLNVVNLLGACTKQGGPLMVIVEYCKYGNLSNYLKSKRDFFCLNKDAALHMEPKKEKLEPDLEQDQKPRLDSVSSSESFTSSGFQEDKSVSDVEGGEDYSEISKQPLTMEDLISYSFQVARGMEFLSSRKCIHRDLAARNILLSENNVVKICDFGLARDIYKNPDYVRRGDTRLPLKWMAPESIFDKVYSTKSDVWSYGVLLWEIFSLGGSPYPGVQMDEDFCSRLKEGMRMRTPEYATPEIYQIMLDCWHKDPKERPRFAELVEKLGDLLQANVQQDGKDYIPLNAILTRNSGFTYSVPTFSEDFFKDGFTDPKFHSGSSDDVRYVNAFKFMSLERIKTFEELSPNATSMFEDYHLDTSSLLTSPLLKRFTWTETKPKASMKIDLRITSKSKEAGLSDLPGPSFCFSSCGHIRPVRQEDEDDPELGKESCCSPPPDYNSVVLYSSPPA
For the molecule B2, the binding entry in assay [5] was “binds weakly”.
